{"source": "PubChem BioAssay AID504764 – Drosophila RNAi Screening Center – 2011", "purpose": "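Genome-wide screen for regulators of Notch-driven gene expression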 (primary screen)", "cell system": "Drosophila Kc167 cells", "reagents": "long dsRNA against Drosophila genes", "time to read-out": "about 5 days (4 days dsRNA, then 24 h after transfection)", "challenge": "transfection of constitutively active membrane-tethered Notch lacking the extracellular domain, read 24 h later", "measurement": "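Light from a Notch-responsive E(spl)m3 luciferase reporter under active Notch, with control-promoter and no-Notch reporter wells to normalise; raw counts from paired wells a and b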", "direction": "induced reporter light, run 1, well a and induced reporter light, run 1, well b: higher = more light from the Notch target reporter with active Notch; control promoter light, run 1, well a and control promoter light, run 1, well b: higher = more light from the viral control promoter (cell number, transfection, viability); uninduced reporter light, run 1, well a: higher = more light from the Notch target reporter without active Notch", "rule for the call": "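Wells with low control signal or poorly matching duplicates excluded; duplicates averaged; per source plate, z beyond ±2 for induced/control log2 ratio or beyond ±1.8 for induced/uninduced marks a hit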", "calls": "active = modifier hit (raised or lowered Notch signal); inactive = not a hit", "note": "The deposit covers about 22,000 reagents; shown is an unselected part of those with a known target gene and a result. In the full data, 403 (1.9%) are marked active. 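Unnormalised raw counts per well; ratio z-scores behind the hit calls and whether each hit raises or lowers signal are not deposited.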 A number with no mark means an inactive call. A plus sign joins genes that one reagent is predicted to hit. The record does not give: the amount of reagent."}
{"gene":"piwi (GeneID 34521)","dsRNA":"DRSC03592","induced reporter light, run 1, well a":2.37e5,"induced reporter light, run 1, well b":2.96e5,"control promoter light, run 1, well a":1.87e5,"control promoter light, run 1, well b":2.38e5,"uninduced reporter light, run 1, well a":20610}
{"gene":"CG7968 (GeneID 34802)","dsRNA":"DRSC01903","induced reporter light, run 1, well a":1.41e5,"induced reporter light, run 1, well b":1.64e5,"control promoter light, run 1, well a":1.71e5,"control promoter light, run 1, well b":1.74e5,"uninduced reporter light, run 1, well a":12635}
{"gene":"CG34435 (GeneID 31471)","dsRNA":"DRSC18086","induced reporter light, run 1, well a":1.39e5,"induced reporter light, run 1, well b":1.40e5,"control promoter light, run 1, well a":3.03e5,"control promoter light, run 1, well b":2.44e5,"uninduced reporter light, run 1, well a":10540}
{"gene":"fra (GeneID 36377)","dsRNA":"DRSC07621","induced reporter light, run 1, well a":93100,"induced reporter light, run 1, well b":1.07e5,"control promoter light, run 1, well a":1.52e5,"control promoter light, run 1, well b":1.79e5,"uninduced reporter light, run 1, well a":10800}
{"gene":"CG11307 (GeneID 40400)","dsRNA":"DRSC11648","induced reporter light, run 1, well a":1.01e5,"induced reporter light, run 1, well b":1.24e5,"control promoter light, run 1, well a":73120,"control promoter light, run 1, well b":88305,"uninduced reporter light, run 1, well a":8625}
{"gene":"Hers + amn","dsRNA":"DRSC20306","induced reporter light, run 1, well a":1.03e5,"induced reporter light, run 1, well b":1.12e5,"control promoter light, run 1, well a":81655,"control promoter light, run 1, well b":1.36e5,"uninduced reporter light, run 1, well a":12450}
{"gene":"Fmr1 (GeneID 37528)","dsRNA":"DRSC16674","induced reporter light, run 1, well a":91375,"induced reporter light, run 1, well b":99705,"control promoter light, run 1, well a":82700,"control promoter light, run 1, well b":75470,"uninduced reporter light, run 1, well a":4800}
{"gene":"tx (retired record) (GeneID 44875)","dsRNA":"DRSC16931","induced reporter light, run 1, well a":"1.46e5 (active)","induced reporter light, run 1, well b":1.51e5,"control promoter light, run 1, well a":2.18e5,"control promoter light, run 1, well b":2.18e5,"uninduced reporter light, run 1, well a":13920}
{"gene":"Arc1 (GeneID 36595)","dsRNA":"DRSC06159","induced reporter light, run 1, well a":"1.14e5 (active)","induced reporter light, run 1, well b":1.23e5,"control promoter light, run 1, well a":1.44e5,"control promoter light, run 1, well b":1.44e5,"uninduced reporter light, run 1, well a":17682}
{"gene":"MED22 (GeneID 31038)","dsRNA":"DRSC18175","induced reporter light, run 1, well a":96670,"induced reporter light, run 1, well b":1.03e5,"control promoter light, run 1, well a":1.40e5,"control promoter light, run 1, well b":1.54e5,"uninduced reporter light, run 1, well a":8140}
{"gene":"CG33308 (GeneID 2768925)","dsRNA":"DRSC01419","induced reporter light, run 1, well a":86245,"induced reporter light, run 1, well b":91280,"control promoter light, run 1, well a":97630,"control promoter light, run 1, well b":86945,"uninduced reporter light, run 1, well a":7132}
{"gene":"CG5790 (GeneID 35095)","dsRNA":"DRSC02896","induced reporter light, run 1, well a":1.87e5,"induced reporter light, run 1, well b":1.73e5,"control promoter light, run 1, well a":1.61e5,"control promoter light, run 1, well b":1.68e5,"uninduced reporter light, run 1, well a":14495}
{"gene":"ect (GeneID 44135)","dsRNA":"DRSC10675","induced reporter light, run 1, well a":2.40e5,"induced reporter light, run 1, well b":2.07e5,"control promoter light, run 1, well a":3.26e5,"control promoter light, run 1, well b":1.96e5,"uninduced reporter light, run 1, well a":8620}
{"gene":"ect (GeneID 44135)","dsRNA":"DRSC11343","induced reporter light, run 1, well a":1.49e5,"induced reporter light, run 1, well b":1.41e5,"control promoter light, run 1, well a":1.35e5,"control promoter light, run 1, well b":1.53e5,"uninduced reporter light, run 1, well a":9255}
{"gene":"CG4318 (GeneID 32266)","dsRNA":"DRSC19887","induced reporter light, run 1, well a":1.32e5,"induced reporter light, run 1, well b":1.38e5,"control promoter light, run 1, well a":2.79e5,"control promoter light, run 1, well b":2.57e5,"uninduced reporter light, run 1, well a":9985}
{"gene":"UQCR-C2 (GeneID 39846)","dsRNA":"DRSC10405","induced reporter light, run 1, well a":67865,"induced reporter light, run 1, well b":65475,"control promoter light, run 1, well a":96290,"control promoter light, run 1, well b":75020,"uninduced reporter light, run 1, well a":2960}
{"gene":"miple1 (GeneID 38047)","dsRNA":"DRSC08722","induced reporter light, run 1, well a":2.00e5,"induced reporter light, run 1, well b":1.76e5,"control promoter light, run 1, well a":2.29e5,"control promoter light, run 1, well b":2.52e5,"uninduced reporter light, run 1, well a":10525}
{"gene":"Ssb-c31a (GeneID 34120)","dsRNA":"DRSC03443","induced reporter light, run 1, well a":1.48e5,"induced reporter light, run 1, well b":1.48e5,"control promoter light, run 1, well a":91790,"control promoter light, run 1, well b":1.06e5,"uninduced reporter light, run 1, well a":20260}
